From the supplement of paper PMC3334620
Over roughly 33,000 sequences, “E-score (-0.5 to 0.5)” has its median near -0.0014; the highest 2% begin near 0.25. The list shows a part of the results.

target: T1, Cad1 (UniProt P24813); assay: PBM E-score (8-mer binding enrichment) (E-score (-0.5 to 0.5)); higher = stronger / more preferred TF binding; details: protein concentration: 100 nM; construct: GST-full length
T1 sequence: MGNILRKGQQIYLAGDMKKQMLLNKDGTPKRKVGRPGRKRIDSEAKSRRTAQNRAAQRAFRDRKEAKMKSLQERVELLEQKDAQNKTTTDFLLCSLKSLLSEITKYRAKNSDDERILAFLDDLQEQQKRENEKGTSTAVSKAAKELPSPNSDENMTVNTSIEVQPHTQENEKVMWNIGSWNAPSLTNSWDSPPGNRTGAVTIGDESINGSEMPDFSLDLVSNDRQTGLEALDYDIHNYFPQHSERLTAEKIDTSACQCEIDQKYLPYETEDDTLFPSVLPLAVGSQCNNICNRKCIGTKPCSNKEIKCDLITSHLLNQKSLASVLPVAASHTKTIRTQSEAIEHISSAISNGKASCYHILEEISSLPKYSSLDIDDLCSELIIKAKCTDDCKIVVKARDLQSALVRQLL
Procedure, shortened: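 Universal all-10-mer Agilent arrays, fresh or stripped once, were converted to double-stranded form by primer extension. GST-tagged yeast transcription factors from PURExpress in vitro transcription/translation, full-length or DNA-binding domain only, were applied at about 100-200 nM and detected with fluorescent anti-GST. After masliner normalisation, the Universal PBM Analysis Suite scored each ungapped eight-base word together with its reverse complement by E-score.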

| Sequence | PBM E-score |
| --- | --- |
| AAAATCGG | 0.0568 |
| ACCTGTAT | -0.048 |
| AATTCGAG | 0.062 |
| GCACCGAA | 0.143 |
| CACTCAGC | 0.012 |
| CCATTTAA | 0.0115 |
| ATCCTTGG | 0.0374 |
| AGAAAAAA | 0.0837 |
| GGATTCGA | -0.148 |
| AAGTTGAG | 0.0317 |
| AAGACTGT | -0.0728 |
| ACTTCTCG | 0.0748 |
| AACTCGTC | -0.0198 |
| CAGGTCGA | 0.0664 |
| ACGAAACC | 0.202 |
| AATTGCAC | 0.0357 |
| AGTTCCAA | 0.0339 |
| GTAAGACA | 0.0626 |
| TATTTAAA | 0.117 |
| AATACCCA | 0.0624 |
| AAACAAGG | -0.015 |
| GGGACCGA | -0.0725 |
| GGTATTAC | 0.186 |
| CGTACTGC | -0.117 |
| AGTCTAGG | -0.197 |

| Sequence | PBM E-score |
| --- | --- |
| CATTGGGG | -0.247 |
| CAGGGTTC | 0.024 |
| ATCCATTC | 0.131 |
| AAAGCGAA | -0.0101 |
| AAGTGATG | -0.0174 |
| AGTGTTGA | 0.101 |
| AGGGGCAA | -0.125 |
| AGAAAGAC | 0.016 |
| GAAATGCC | -0.15 |
| GATTTCGA | -0.0223 |
| CAGAACAG | -0.00393 |
| ACTAAGAG | -0.0753 |
| AGTAATAA | 0.132 |
| AGCGGTGA | -0.0991 |
| AGGCCGTA | 0.131 |
| CGCATGCA | 0.154 |
| AGGGGGTC | -0.445 |
| ATGGCCTA | -0.0975 |
| ATTAACGG | 0.139 |
| GTTGAGAA | 0.0176 |
| GACGTGCC | -0.162 |
| TCCCTGCA | 0.043 |
| GTACTGCA | -0.0315 |
| ACTGCTCT | -0.0467 |
| GTGTCAGA | -0.063 |

Exported bar-delimited: part of the list above.
Sequence | PBM E-score
TCCCTGCA | 0.043
GTACTGCA | -0.0315

Continuation:

| Sequence | PBM E-score |
| --- | --- |
| GACCAATC | 0.0744 |
| CCCGGGAG | -0.0573 |
| GGACGTCC | 0.147 |
| CCCCAACC | -0.0982 |
| CATAAGTC | -0.00869 |
| CTACATCC | -0.132 |
| CAGTACAC | -0.0523 |
| AATAGTGC | 0.135 |
| CTTACGAA | 0.155 |
| AGGAACAC | 0.134 |
| ATGCGACG | -0.0604 |
| AGTCATTC | -0.206 |
| CACCTAGA | -0.156 |
| TACTCGGA | 0.0784 |
| AACCTACA | 0.113 |
| GAGGGCAA | 0.0132 |
| TACTGGCA | -0.207 |
| ACAAGATC | -0.162 |
| AAGAGGAT | -0.242 |
| AAAATTGT | 0.167 |
| CTATGCAG | 0.15 |
| GTATGTCA | 0.191 |
| GAGCAGCC | 0.062 |
| TCTAAACA | -0.00542 |
| CCTGCTAA | -0.128 |

| Sequence | PBM E-score |
| --- | --- |
| GCGCACCA | 0.134 |
| AGCCGTAA | 0.0619 |
| ATAAGAGC | 0.0891 |
| GAAGACCA | -0.0594 |
| GAGTAGAA | 0.0302 |
| CGGAAGGC | -0.258 |
| ACGCGGCC | -0.0773 |
| ACTCTTCC | -0.115 |
| AACACTGG | -0.0124 |
| CGATGGAA | 0.0409 |
| ACAGCCAG | 0.0367 |
| ATTCATCA | 0.132 |
| CAGCCCGA | -0.094 |
| ACGCAGCG | 0.0217 |
| AGGTAGTA | 0.113 |
| GGCGAGAC | -0.103 |
| ATTTTGTC | 0.121 |
| ACGCTAAA | 0.0989 |
| ACCTTCAT | -0.0561 |
| GGCCATCA | -0.0758 |
| GATCTGAA | -0.0481 |
| CAGTCGAA | -0.137 |
| AAGTTATT | 0.11 |
| GATGTCTA | 0.0163 |
| CCTTTACG | 0.114 |

| Sequence | PBM E-score |
| --- | --- |
| AATGGAAT | 0.165 |
| CTGAAGCC | -0.0812 |
| ATAAAGTG | 0.0831 |
| CCTAGGAA | -0.0631 |
| CAATGTGG | 0.0868 |
| ACTAGATA | 0.0286 |
| ATAGTTTC | 0.0743 |
| CTGACTCA | 0.138 |
| CAGTACGC | 0.00345 |
| CGGTTATA | -0.0843 |
| GAAGCGTA | -0.0711 |
| GCACGGGA | 0.00455 |
| GACCTTTA | 0.0223 |
| CTGCCCGC | 0.121 |
| ACTGAGGC | 0.165 |
| AATCTATC | 0.0112 |
| AACTGGAT | 0.0915 |
| CGTCGGGC | -0.217 |
| GAACTAAC | -0.0054 |
| CTTATCCC | -0.0437 |
| CAGTGCCC | -0.109 |
| AATACTCC | -0.123 |
| GGTCAGAC | -0.0236 |
| ATCCATCA | -0.0223 |
| CCTTTCCA | -0.116 |

Copied from the list:
Entry for CCTTTCCA under PBM E-score: -0.116
Entry for ACTGCTCT under PBM E-score: -0.0467

Some of the entries so far, bar-delimited.
Sequence | PBM E-score
TCCCTGCA | 0.043
GTACTGCA | -0.0315
ACTGCTCT | -0.0467
GTGTCAGA | -0.063

Remaining list, next part

| Sequence | PBM E-score |
| --- | --- |
| GCCTCTAA | -0.0482 |
| CGATAACC | 0.0893 |
| CCATTAAG | 0.0196 |
| AAAACATT | 0.072 |
| CGGTAGTC | -0.114 |
| TCCCACAA | -0.0498 |
| GCAATGAC | -0.139 |
| AGGATAAT | 0.187 |
| ATGCAAGA | 0.0655 |
| GAAGTCTA | -0.198 |
| ACCAGGCG | -0.117 |
| TGTGCGAA | -0.0794 |
| AGCATCGA | 0.116 |
| AACATCTT | -0.189 |
| GACGATCA | -0.108 |
| ACGTCGCG | 0.0898 |
| GTCATAAA | 0.0848 |
| AAACACGC | 0.1 |
| CAAGTAGG | -0.12 |
| GACCTCTA | -0.177 |
| CAACTCCA | -0.137 |
| AATTGGAT | 0.232 |
| GCTTTGGA | 0.0958 |
| AACATCGC | 0.0209 |
| CGGGACTC | -0.109 |

| Sequence | PBM E-score |
| --- | --- |
| ATCCCTGG | -0.161 |
| ATTAAAAT | 0.253 |
| CTTATTCA | 0.17 |
| TAATAAGA | 0.137 |
| AGAAATAT | 0.222 |
| CGTCGAGA | 0.139 |
| AATAACTA | 0.168 |
| CGGAGTAA | 0.109 |
| GACGTGGC | -0.177 |
| CAGCCTCC | -0.231 |
| ATGTTACG | 0.111 |
| ACTCGCAA | 0.0854 |
| CATACATG | 0.0962 |
| AGAGGAAG | -0.119 |
| CTCCAAGC | 0.0211 |
| GGGCGCGA | 0.0847 |
| GGCCTCAA | -0.0369 |
| AGCCCCGG | -0.296 |
| CCCTCAGC | -0.088 |
| AAATCACG | 0.148 |
| CCCGCGGC | 0.0319 |
| AAACCTGG | 0.00289 |
